Measurements reported in PubChem BioAssay AID652243 (Drosophila RNAi Screening Center, 2013)
In all, the deposit lists about 24,000 reagents; this is a random part of those that have a named target and a result. In the full data, 246 (1%) got an active call. 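Plates not normalised; calls are printed but the firefly/Renilla ratio behind them is not deposited; fold cut for lowering reported inconsistently.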 Raw values are not corrected between plates. Reagents against one gene are numbered here. Not stated in the record: the amount of reagent.

Aim: 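Fly genes required for human androgen receptor driven transcription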 (primary screen)
System: Drosophila S2R+ cells
Knock-down reagent: long dsRNA against Drosophila genes
Time to read-out: 72 h (48 h, then 24 h hormone)
Treatment: synthetic androgen R1881 at 10 nM for 24 h
Measured: 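Firefly light from an androgen-responsive reporter and Renilla control light per well, raw and unnormalised, for each of two replicates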
Scale: firefly reporter light: higher = more light from androgen-responsive reporter; Renilla control light: higher = more constitutive control signal (cell number, transfection)
Active means: 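Hit when the log firefly-to-Renilla ratio dropped or increased by a fixed fold versus the mean of GFP or LacZ controls across duplicate plates; lowering cut given as 1.5 and as 3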
Meaning of the calls: active = hit: reporter lowered or raised; inactive = no hit

gene	reagent	firefly reporter light, replicate 1	firefly reporter light, replicate 2	Renilla control light, replicate 1	Renilla control light, replicate 2	activity call
ng2 (new glue 2)	1	3.39e5	3.85e5	2.23e6	2.27e6	inactive
CG32188	1	2.47e5	62154	3.11e5	1.43e5	inactive
Jasper (JIL-1 anchoring and stabilizing protein)	1	1.03e5	75539	6.51e5	4.86e5	inactive
CG4945	1	1.18e6	1.06e6	2.13e6	1.55e6	inactive
CG4945	2	3.11e5	4.14e5	7.88e5	7.88e5	inactive
CG4945	3					inactive
CG9304	1	1.89e5	1.69e5	1.17e6	9.70e5	inactive
CG9304	2	4.83e5	3.43e5	4.90e5	5.30e5	inactive
IntS9 (Integrator 9)	1	27923	26177	3.70e5	3.00e5	inactive
IntS9 (Integrator 9)	2	5.50e5	4.17e5	1.32e6	1.35e6	inactive
CG18744	1	82345	82947	1.96e6	1.93e6	inactive
CR31822 (pseudo)	1	1.43e5	1.59e5	5.20e5	5.16e5	inactive
Dlic (Dynein light intermediate chain)	1	1.13e5	89930	7.10e5	5.53e5	inactive
Cpr66D (Cuticular protein 66D)	1	5.44e5	5.33e5	1.47e6	1.33e6	inactive
Cpr66D (Cuticular protein 66D)	2	3.20e5	3.96e5	6.63e5	6.10e5	inactive
CG13074	1	2.58e5	2.28e5	2.46e6	2.04e6	inactive
tsu (tsunagi)	1	3.68e5	1.89e5	1.91e6	1.44e6	inactive
CG32652 (retired record)	1	3.76e5	3.96e5	3.04e6	3.72e6	inactive
CG32652 (retired record)	2	5.60e5	8.13e5	7.44e5	1.05e6	inactive
CG32652 (retired record)	3	2.78e5	3.20e5	7.93e5	8.22e5	inactive
CG7907	1	2.49e5	2.83e5	3.32e6	3.00e6	inactive
CG7907	2	2.96e5	2.41e5	7.29e5	5.66e5	inactive
Swim (Secreted Wg-interacting molecule)	1	1.04e6	5.36e5	2.33e6	1.20e6	inactive
CG13545	1	4.83e5	4.64e5	2.91e6	2.01e6	inactive
CG13545	2	1.07e6	1.03e6	1.33e6	1.18e6	inactive

3 entries already listed, sorted by “Renilla control light, replicate 1”, low to high.
gene	reagent	firefly reporter light, replicate 1	firefly reporter light, replicate 2	Renilla control light, replicate 1	Renilla control light, replicate 2	activity call
CR31822 (pseudo)	1	1.43e5	1.59e5	5.20e5	5.16e5	inactive
Dlic (Dynein light intermediate chain)	1	1.13e5	89930	7.10e5	5.53e5	inactive
Cpr66D (Cuticular protein 66D)	1	5.44e5	5.33e5	1.47e6	1.33e6	inactive
